Results taken from PubChem BioAssay AID624297 (National Center for Advancing Translational Sciences (NCATS), 2012).
In all, about 340,000 compounds went through this assay and about 6,200 (1.8%) were called active. Inconclusive results, whose numbers are uncertain, are shown with a selection of clear calls. Calls follow the shape of the dose curve; as a rule, active = well fitted activation curve with a large enough effect; inconclusive = small, poorly fitted or top-dose-only effect; inactive = no such curve, though single readings can be large or run the other way. Potencies beside an inconclusive call are fits to weak or partial responses and may not hold up.

Assay: A quantitative high throughput screen for small molecules that induce DNA re-replication in SW480 colon adenocarcinoma cells. Also: nearly all actives have a fitted effect of over 55% in size.
Settings: Hoechst DNA content imaging, 48 h; series mostly up to 46.1 µM
Summary of the method: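 First, 250 cells per well were seeded. Next, compound or vehicle (23 nL) was pinned in, plates sat 48 hr at 37 C. Finally Hoechst was added for 40 min before fluorescence scanning.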
Potency is read from the fitted curve at half-maximal effect.

| SMILES | Potency |
| --- | --- |
| Cc1cc(S(=O)(=O)N2CCCOC2CNC(=O)C(=O)NCc2ccco2)ccc1F (stereo not drawn) | inconclusive: 11.6 µM [activator, partial curve, poor fit] |
| Cc1cccc(CS(=O)(=O)c2ncc(CO)n2C)c1 | inactive |
| CCc1noc(C)c1C(=O)NNC(=O)c1ccccc1Cl | inactive |
| Cc1nc2c(sc(=S)n2Cc2ccco2)c(=O)n1CC(=O)Nc1ccccc1Cl | inconclusive: 10.3 µM [activator, partial curve, poor fit] |
| CCCN1C(=O)C(O)(C2CC(=O)CC(C)(C)O2)c2ccccc21 (stereo not drawn) | active: 16.4 µM |
| Cc1nc2cc(-c3ccc(Cl)cc3)nn2c(C)c1CCC(=O)NCc1ccco1 | inconclusive: 29.1 µM [activator, partial curve, poor fit] |
| Cc1ccc(C(C(=O)NC2CCCC2)N(C(=O)Cc2cccs2)c2cccc(C)c2C)o1 (stereo not drawn) | inconclusive: 23.1 µM [activator, partial curve, poor fit] |
| O=C(O)C1=CC[C@@H](c2ccc(Cl)cc2)N(S(=O)(=O)c2ccc(Cl)cc2)[C@H]1c1ccccc1 | inactive |
| CN(C)CCN(C(=O)C1CCCCC1)c1nc2cc3c(cc2s1)OCO3 | inconclusive: 0.146 µM [activator, full curve, poor fit] |
| CNC(=S)N/N=C/c1c(C(=O)OC)cnn1-c1ccc(F)cc1F | inactive |
| Cc1nnc2sc(-c3csc4c3CCCC4)nn12 | inactive |
| CC(c1ccccc1)C1CC(=O)N(CC(=O)O)C1=O (stereo not drawn) | inconclusive: 20.6 µM [activator, single point] |
| CC(C)CCNC(=O)c1cc2c(=O)n3ccccc3nc2s1 | inconclusive: 3.66 µM [activator, full curve] |
| Cc1cc(C(=O)COc2ccc(Br)cc2F)c(C)n1C1CC1 | inactive |
| Cc1cc(C)cc(OCC(=O)N/N=C/c2ccc([N+](=O)[O-])o2)c1 | inconclusive: 18.4 µM [activator, partial curve, poor fit] |
| CCOc1ccc(-c2ncncc2-c2ccccc2OC)c(O)c1 | inconclusive: 23.1 µM [activator, single point] |
| CC1(C)CC(=O)c2c(oc3ccc(NS(=O)(=O)c4ccc(C(=O)O)cc4)cc23)C1 | inconclusive: 29.1 µM [activator, single point] |
| CCOC(=O)C1=C(COC(=O)c2ccc(Cl)nc2)NC(=O)NC1C (stereo not drawn) | inactive |
| CCOc1ccc(/C=N/NC(=O)c2csc(C)c2C)c(OCC)c1 | inconclusive: 6.51 µM [activator, single point] |
| CCOc1ccc(C(=O)Nc2ccc(NC(=O)c3ccco3)c(Cl)c2)cc1Cl | inconclusive: 16.4 µM [activator, single point] |
| O=C(COc1ccc(Cl)cc1Cl)N1CCCN(C(=O)COc2ccc(Cl)cc2Cl)CC1 | inconclusive: 23.1 µM [activator, single point] |
| COc1ccc(C(CC(=O)c2ccccc2)S(=O)(=O)c2ccc(C)cc2)cc1 (stereo not drawn) | inconclusive: 35.5 µM [activator, single point] |
| O=C(c1ccc(F)cc1)c1ccc(-c2ccc(F)cc2)nc1 | inactive |

| SMILES | Potency |
| --- | --- |
| O=C(c1cccnc1Cl)N1CCOCC1 | inconclusive: 20.6 µM [activator, single point] |
| CC12CN(C(=O)c3ccc([N+](=O)[O-])cc3)CC(C)(CN(C(=O)c3ccc([N+](=O)[O-])cc3)C1)C2=O | inconclusive: 20.6 µM [activator, single point] |
| COc1ccccc1-c1c(C)nn2c(N3CCN(Cc4ccccc4)CC3)cc(C)nc12 | inconclusive: 32.6 µM [activator, partial curve, poor fit] |
| COc1ccc(C(=O)N2CCNC(=O)C2CC(=O)Nc2cc(Cl)ccc2OC)cc1 (stereo not drawn) | inactive |
| CC(OC(=O)CCCNC(=O)c1ccc(Cl)cc1)C(=O)N(C)Cc1ccccc1 (stereo not drawn) | inactive |
| N#CC1=C(SCc2ccccc2)NC(=O)CC1c1ccc(O)cc1 (stereo not drawn) | inactive |
| CC(=O)NC1CCN(CC(=O)Nc2cccc([N+](=O)[O-])c2)CC1 | inconclusive: 29.1 µM [activator, partial curve, poor fit] |
| Cc1cc(C)c(S(=O)(=O)NC2CC3CCC2C3)c(C)c1 (stereo not drawn) | inconclusive: 2.91 µM [activator, partial curve, poor fit] |
| COc1ccc(NC(=O)Nc2c(O)ccc3ccccc23)cc1 | inconclusive: 29.1 µM [activator, single point] |
| COc1ccc2nc(N=NC3=C(O)CC(C)(C)CC3=O)sc2c1 | active: 2.06 µM |
| O=c1[nH]c(Nc2ccccc2)cc2cc(Br)ccc12 | inconclusive: 7.31 µM [activator, partial curve, poor fit] |
| Cn1c(C(=O)NCCN2CCOCC2)cc2c(=O)n(C)c3ccccc3c21 | inactive |
| CCc1ccc(NC(=O)C(=O)c2ccccc2NC(C)=O)cc1 | inactive |
| Cc1sc2ncn(CC(=O)N3CCCCC3)c(=O)c2c1S(=O)(=O)N1CCC(C)CC1 | inactive |
| COc1ccc2c(c1)C(c1cccs1)=NNC(c1ccncc1)=N2 | inconclusive: 29.1 µM [activator, single point] |
| COc1cccc(/C=C/C(=O)Nc2ccc3[nH]c(=O)[nH]c3c2)c1 | inactive |
| C=CCC1(CC=C)CCCN1C(=O)c1cc(COc2cccc(OC)c2)on1 | inconclusive: 0.116 µM [activator, full curve] |
| Cc1ccccc1C(=O)/C(C#N)=N/Nc1c(C)n(C)n(-c2ccccc2)c1=O | inconclusive: 0.184 µM [activator, full curve, poor fit] |
| CCNC(=S)NNC(=O)c1cc(Br)cs1 | active: 16.4 µM |
| CSCC[C@H](NC(=O)c1ccc(Cl)c(S(=O)(=O)N2CCCC2)c1)c1nc2ccccc2[nH]1 | inconclusive: 6.51 µM [activator, single point] |
| CC(C)c1cc(=O)oc2c3c4c(cc12)CCCN4CCC3 | inconclusive: 1.16 µM [activator, partial curve, poor fit] |
| CCOC(=O)c1c(-c2ccccc2)csc1NC(=O)c1ccc(S(=O)(=O)N2CCOCC2)cc1 | inconclusive: 9.2 µM [activator, single point] |
| COc1cc2cc(C(c3nnnn3C3CCCC3)N3CCc4ccccc43)c(=O)[nH]c2cc1OC (stereo not drawn) | inconclusive: 29.1 µM [activator, single point] |

Pulled by compound from above (three):

| SMILES | Potency |
| --- | --- |
| COc1cc2cc(C(c3nnnn3C3CCCC3)N3CCc4ccccc43)c(=O)[nH]c2cc1OC (stereo not drawn) | inconclusive: 29.1 µM [activator, single point] |
| CSCC[C@H](NC(=O)c1ccc(Cl)c(S(=O)(=O)N2CCCC2)c1)c1nc2ccccc2[nH]1 | inconclusive: 6.51 µM [activator, single point] |
| Cn1c(C(=O)NCCN2CCOCC2)cc2c(=O)n(C)c3ccccc3c21 | inactive |

Next structures

| SMILES | Potency |
| --- | --- |
| Clc1ccc(Cl)c(OCCCCN2CCNCC2)c1 | inactive |
| CC(C)Cc1nnc(NC(=O)CCS(=O)(=O)c2ccc(Cl)cc2)s1 | inconclusive: 29.1 µM [activator, single point] |
| Cc1ccc(N2C(=O)C3C4C=CC(CC4)C3C2=O)c([N+](=O)[O-])c1 (stereo not drawn) | inconclusive: 0.82 µM [activator, full curve, poor fit] |
| CC(Nc1nc(Nc2ccc(F)cc2)nc(SCC(N)=O)n1)c1ccccc1 (stereo not drawn) | inconclusive: 29.1 µM [activator, single point] |
| O=C(/C=C/c1ccccc1)Nc1nnc(-c2ccco2)o1 | inconclusive: 0.13 µM [activator, full curve, poor fit] |
| CNc1ccc(/C=C(\C#N)C(=O)Nc2ccccn2)cc1[N+](=O)[O-] | inactive |
| CCCc1cc(=O)oc2c(C)c(OCC(=O)N3CCC(C(=O)O)(c4ccccc4)CC3)ccc12 | inactive |
| CCOc1cc2[nH]c(=S)n(Cc3ccc(C)o3)c(=O)c2cc1OCC | inconclusive: 29.1 µM [activator, single point] |
| CCN(CC)S(=O)(=O)c1cc(C(=O)OC(C)C(=O)NCc2ccco2)ccc1C (stereo not drawn) | inconclusive: 0.651 µM [activator, partial curve, poor fit] |
| O=[N+]([O-])c1ccc(N2CCN(Cc3ccc(Br)o3)CC2)cc1 | inactive |
| CCc1ccc(OCC(=O)NCc2ccco2)c(Br)c1 | inconclusive: 29.1 µM [activator, single point] |
| O=C(Nc1ccccc1)N1CCN(Cc2ccc(Cl)cc2)CC1 | inconclusive: 18.4 µM [activator, single point] |
| Cc1ccc(OCCOCCN2CCCCC2)c([N+](=O)[O-])c1 | inconclusive: 29.1 µM [activator, single point] |
| CCc1nnc(NC(=O)CCc2ccc(C)o2)s1 | inactive |
| CCC(C(=O)NC1CCCCC1)n1c(SCc2ccc(F)cc2)nc2ccncc21 (stereo not drawn) | inconclusive: 13 µM [activator, partial curve, poor fit] |
| CCc1nc2ccccc2c(C(=O)OCc2nc3ccccc3c(=O)[nH]2)c1C | active: 11.6 µM |
| COCCN=C1NN=C(c2ccc(NC(C)=O)cc2)CS1 | inconclusive: 25.9 µM [activator, single point] |
| Cc1ccc(-c2csc(N3CCN(c4ccc5nc(-c6ccncc6)n(CCN6CCCCC6)c5c4)CC3)n2)cc1 | inconclusive: 23.1 µM [activator, partial curve, poor fit] |
| COc1ccc(O/C(=N\S(=O)(=O)c2ccccc2)c2ccccc2)cc1 | inconclusive: 29.1 µM [activator, single point] |
| COc1cccc(NC2=C(NCCO)C(=O)c3ccccc3C2=O)c1 | inconclusive: 18.4 µM [activator, partial curve, poor fit] |
| COc1cc(NS(=O)(=O)c2ccc(NC(=O)COc3ccccc3Cl)cc2)nc(OC)n1 | inconclusive: 29.1 µM [activator, single point] |
| S=C(N=Nc1ccccc1)NNc1ccccc1 | inconclusive: 0.206 µM [activator, single point] |
